To fix the notation:
B1: myc-GEF-H1 phosphorylated at Thr103 (co-expressed with CaMKI-CA) (protein, UniProt Q60875 1-985)
chain: MSRIESLTRARIDRSKEQATKTREKEKMKEAKDARYTNGHLFTTISVSGMTMCYACNKSITAKEALICPTCNVTIHNRCKDTLANCTKVKQKQQKAALLRNNTALQSVSLRSKTTTRERPTSAIYPSDSFRQSLLGSRRGLSSLSLAKSVSTTNIAGHFNDESPLGLRQILSQSTDSLNMRNRTLSVESLIDEGVEVFYNELMSDFEMDEKDFEADSWSLAVDSSFLQQHKKEVMKKQDVIYELIQTELHHVRTLKIMTRLFRTGMLEELQMEPEVVQGLFPCVDELSDIHTRFLNQLLERRRQALCPGSTRNFVIHRLGDLLISQFSGSNAEQMRKTYSEFCSRHTKALKLYKELYARDKRFQQFIRKMTRSAVLKRHGVQECILLVTQRITKYPVLINRILQNSHGVEEEYQDLASALGLVKELLSNVDQDVHELEKEARLQEIYNRMDPRAQTPVPGKGPFGRDELLRRKLIHEGCLLWKTATGRFKDVLLLLMTDVLVFLQEKDQKYIFTSLDKPSVVSLQNLIVRDIANQAKGMFLISSGPPEMYEVHAASRDDRTTWIRVIQQSVRLCPSREDFPLIETEDKAYLRRIKTKLQQKNQALVELLQKNVELFAEMVHFQALKAGFVGMPPPALPRGLFRLESFESLRGERLLKDALREVEGLKDLLLGPCVDLPMTSREPALPLDSDSGSCPGVTANGEARTFNGSIELCRADSDSSQKDRNGNQLRSPQEEVLQPLINLYGLLHGLQAVVVQQERLMEALFPEGPERWEKLSRANSRDGEAGRAAVASVTPEKQATELALLQRQHTLLQEELRRCQRLGEERATEAGSLEARLRESEQARALLEREAEEIRRQLAALGQNEPLPAEAPWARRPLDPRRRSLPAGDALYLSFNPPQPSRGHDRLDLPVTVRSLHRPFDDREAQELGSPEDRLQDSSDPDTGSEEEVSSRLSPPHSPRDFTRMQDIPEETESRDGEPTASES
modifications: phosphothreonine at 103 (by co-expressed CaMKI-CA)
B2: myc-GEF-H1–WT (protein, UniProt Q60875 1-985)
chain: B1 chain
B3: myc-GEF-H1–T103E (protein, UniProt Q60875 1-985)
chain: B1 chain with T103E

Amino acid sequences for entries named in this document (tags omitted). A change or cut given only in a name is not applied to a line headed by its entry.
UniProt P61586: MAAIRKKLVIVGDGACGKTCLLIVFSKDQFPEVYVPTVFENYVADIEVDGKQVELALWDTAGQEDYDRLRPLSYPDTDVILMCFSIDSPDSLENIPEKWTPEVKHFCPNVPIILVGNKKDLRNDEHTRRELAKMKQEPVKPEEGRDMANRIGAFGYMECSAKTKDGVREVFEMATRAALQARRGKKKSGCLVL

Where a chain is given by its changes, count along the chain named. Names and notes keep the numbering of the source. These are yes or no findings as the source states them, for the method shown. Binding seen in cells or lysates may run through a third protein. Some binding calls cover weakened binding; strength is not graded here. Where a sequence is shown, tags or fusion partners need not be part of it.

The experiment addresses GST-RhoA-G17A (UniProt P61586). The experiment in a line: pull-down; GST-RhoA-G17A from transfected COS-7 lysate held on glutathione Sepharose beads, incubated at 4 °C in extracts of COS-7 cells expressing myc-GEF-H1 (alone or with myc-CaMKI-WT, -CA or -KD); lysis buffer 10 mM HEPES pH 7.5, 150 mM NaCl, 1 mM MgCl2, 1 mM EGTA, 0.2% Triton-X; immunoblot with anti-myc; only the target purified. On the technique in general: A western blot detects proteins with antibodies after separation by electrophoresis.
With B1, the binding entry is recorded as “binds”.

Regarding B2, the binding result was “binds”.

On to B3, for which the binding result is “binds”.

Values taken from publication PMC5484694.
